# The whole screen tested about 320,000 compounds, of which about 2,100 (0.66%) were called active. Inconclusive results, whose numbers are uncertain, are shown with a selection of clear calls. The call rests on the fitted dose curve; in most records, active means well fitted inhibition curve with a large enough effect in the signal ratio, with a control signal flat (not every such curve was filed as active); inconclusive means small, poorly fitted or top-dose-only effect, or effect the other way, or a change in a side signal; inactive means flat fitted curve, though single readings scatter; the % refers to the signal ratio. Potencies of inconclusive entries are doubtful fits and often do not repeat.
# Assay: qHTS Assay for Lipid Storage Modulators in Drosophila S3 Cells
# Conditions: BODIPY lipid droplet fluorescence, 18-24 h, cells fed with added oleic acid; lipid storage change, negative = inhibition: at 46.1 µM (top of the series) unless noted
# Summary of the method: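 Drosophila S3 cells loaded with oleic acid (400 uM, as added) and compounds at several concentrations; lipid droplets imaged by 488-nm laser-scanning cytometry, 500–530 nm intensity and object ratio to cell channel. Percent activity normalized to 20 uM Triacsin C.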
# On the % scale 0 is the no-effect control and ±100 the full control effect; potency means the concentration at half of the fitted maximal effect.
Compound,Potency,"lipid storage change, negative = inhibition"
C=C(C)Cn1c(SCC(=O)N/N=C/c2cccc(O)c2)nc2ccccc2c1=O,"inconclusive: 20.6 µM [falling, single point]",–
COc1ccc(CC(=O)N2CCC(Nc3nc4ccccc4n3Cc3ccc(F)cc3)CC2)cc1,–,inconclusive: -10.7%
N#CC1=C(N)C(C#N)(C#N)C(c2ccncc2)C2CN(C(=O)OCc3ccccc3)CC=C12 (configuration not stated),"inconclusive: 10.3 µM [falling, partial curve]",–
O=C(Nc1ccc(Cl)c(Cl)c1)N(CCCN1CCOCC1)Cc1cccnc1,–,inconclusive: 30.3%
N#Cc1c(-c2cccc(Cl)c2)[nH]c(=S)[nH]c1=O,–,inconclusive: 11.1%
CCOC(=O)N1C2=NC(C(=O)OC)=C(C(=O)OC)[C@@H]3Nc4ccccc4[C@]23C[C@H]1C(=O)OC,"inconclusive: 0.651 µM [falling, full curve, poor fit]",–
CN(C)/C=N/c1cc(=O)n(C)c(=O)n1CC1CC1,–,inconclusive: 0.807%
CC(C)(C)CN1CCNC(=O)C1CC(=O)NCCc1ccccc1F (configuration not stated),–,inconclusive: 2.92%
C=CCS(=O)(=O)N1CCCC(C(=O)c2cccc(Cl)c2)C1 (configuration not stated),–,inconclusive: 2.12%
COC(=O)c1ccc(C23CC4(C2)[C@H](CN(Cc2ccc(-c5ccccc5)cc2)[C@@H]4c2ccccc2)C3c2ccc(Cl)nc2)cc1 (some centres not stated),–,inconclusive: 16.5%
O=C(O)Cn1c(=O)c2c3c(sc2n(Cc2ccc(F)cc2)c1=O)CCCC3,–,inconclusive: 1.59%
COC(=O)Cn1cnc2scc(-c3ccc(C)c(C)c3)c2c1=O,–,inconclusive: 9.97%
CCSc1nc2c(c(=O)[nH]1)C(C(C)C)C(C#N)=C(N)O2 (configuration not stated),"inconclusive: 0.116 µM [activator, full curve]",–
O=C(COC(=O)CNC(=O)c1ccc([N+](=O)[O-])o1)Nc1ncc(C(F)(F)F)cc1Cl,"inconclusive: 0.326 µM [falling, partial curve, poor fit]",–
CN(C(=O)CSc1nnc(-c2ccc(OC(F)F)cc2)n1N)C1CCS(=O)(=O)C1 (configuration not stated),–,inconclusive: -21.8%
O=[N+]([O-])c1ccc(N2CCNCC2)c(S(=O)(=O)N2CCOCC2)c1,–,inconclusive: 41.6%
O=C(Nc1cccnc1Cl)c1cccc(S(=O)(=O)N2CCOCC2)c1,–,inconclusive: 38.5%
Cc1cc(O)cc(O)c1C=NCc1ccco1,"inconclusive: 29.1 µM [cytotoxic, single point]",–
CCN=C1SC(CC(=O)NC(N)=O)C(=O)N1CC (configuration not stated),"inconclusive: 4.11 µM [falling, single point]",–
COc1ccccc1CC(NC(C)=O)C(=O)NC1CCN(C(=O)Nc2cccc(F)c2)CC1 (configuration not stated),"inconclusive: 16.4 µM [falling, partial curve]",–
Cc1cc(O)c(C(=O)/C=C/c2ccccc2Br)c(=O)o1,"inconclusive: 6.51 µM [falling, partial curve, poor fit]",–
COCCN(CCOC)C(=O)c1ccc(NS(=O)(=O)c2ccc3c(c2)OCCO3)cc1,–,inconclusive: 59.6%
CCCOC(=O)c1ccc(NC(=O)c2cn(CC)c3nc(C)ccc3c2=O)cc1,–,inconclusive: -38.4%
Cc1c(C(=O)NC(Cc2ccccc2)c2nc3ccccc3[nH]2)cccc1[N+](=O)[O-] (configuration not stated),–,inconclusive: 2.23%

Compound,Potency,"lipid storage change, negative = inhibition"
NS(=O)(=O)c1ccc(N2CCOCC2)c(C(=O)NCCCSc2ccccc2)c1,"inconclusive: 0.082 µM [falling, full curve, poor fit]",–
COc1ccc(CCNC(=O)CCCOc2cccc(C)c2C)cc1OC,active: 6.51 µM,–
CC(C)Oc1ccc(C2NC(=O)c3ccccc3O2)cc1 (configuration not stated),–,inconclusive: 15%
CSCC(C)N1CCC(CCC(=O)NC2CC2)CC1 (configuration not stated),–,inconclusive: 11%
COc1ccc(NC(=O)Nc2nnc(Cc3ccccc3)s2)cc1,–,inconclusive: 1.33%
CCc1nc2cc([N+](=O)[O-])c([N+](=O)[O-])cc2[nH]1,–,inconclusive: 16.5%
COc1ccc(/C=C2\CCC(C3CCCC3)C2=O)cc1 (configuration not stated),–,inconclusive: 24.9%
C/C(=N\Nc1ccccc1[N+](=O)[O-])c1ccccc1O,"inconclusive: 6.51 µM [falling, single point]",–
COc1ccccc1NC(=O)COC(=O)CC(C)(C)CC1=NS(=O)(=O)c2ccccc2N1,–,inconclusive: -79.3%
CN(CC(=O)Nc1cccc(F)c1)C(=O)CCc1nc2ccccc2c(=O)[nH]1,"inconclusive: 6.51 µM [activator, partial curve]",–
CCC1CSC(Nc2ccc(C(=O)/C=C/c3cccc(C)c3)cc2)=N1 (configuration not stated),–,inconclusive: 57.7%
Cc1oc(-c2ccccc2Cl)nc1CSCC(=O)O,"inconclusive: 0.82 µM [falling, full curve, poor fit]",–
CCc1cccc(CC)c1NC(=O)CSc1nnc(CCC(=O)O)c(=O)[nH]1,–,inconclusive: 22.2%
CC(=O)N1CCc2cc(S(=O)(=O)NCCC(=O)NCCc3ccc(C)cc3)ccc21,"inconclusive: 20.6 µM [activator, partial curve]",–
C=CCn1c(SCC(=O)NCc2ccccc2)nnc1-c1ccccc1O,"inconclusive: 0.0046 µM [falling, full curve, poor fit]",–
COCCCNC(=S)N(Cc1ccccc1)Cc1ccccc1,–,inactive: -3.1%
O=C(CCl)Nc1ccc(N=Nc2ccccc2)cc1,active: 5.8 µM,–
O=C(O)c1ccccc1C(=O)Nc1ccc(S(=O)(=O)NC2CCCCC2)cc1,–,inconclusive: -0.789%
COc1cc(-c2cc(=O)c3ccccc3o2)ccc1O,–,inconclusive: -11.2%
Cc1cc(C)cc(N(C(=O)c2csnn2)C(C(=O)NC(C)(C)C)c2cccnc2)c1 (configuration not stated),–,inconclusive: -17.1%
COC(=O)c1ccc(CNCC(=O)Nc2ccc(C(=O)OC)cc2)cc1,–,inconclusive: 39.7%
O=C(OCc1cc2ccccc2[nH]c1=O)c1ccc([N+](=O)[O-])cc1,–,inconclusive: -19.3%
Cc1ccc(S(=O)(=O)N2CCN(C(=O)C(F)(F)F)C2c2ccc(N(C)C)cc2)cc1 (configuration not stated),"inconclusive: 4.11 µM [falling, partial curve, poor fit]",–
